# ± gives the standard deviation of the averaged measurements. This is one part of the list.
# The chains behind the UniProt entries cited, without tags or fusion partners. Where a name states a change or a piece, a line headed by the entry shows the natural chain unless it says otherwise.
# UniProt O60675: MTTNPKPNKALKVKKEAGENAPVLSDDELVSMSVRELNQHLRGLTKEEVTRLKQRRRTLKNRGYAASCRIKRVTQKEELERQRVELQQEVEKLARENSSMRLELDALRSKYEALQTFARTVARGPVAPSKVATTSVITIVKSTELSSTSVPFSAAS
# UniProt O60244: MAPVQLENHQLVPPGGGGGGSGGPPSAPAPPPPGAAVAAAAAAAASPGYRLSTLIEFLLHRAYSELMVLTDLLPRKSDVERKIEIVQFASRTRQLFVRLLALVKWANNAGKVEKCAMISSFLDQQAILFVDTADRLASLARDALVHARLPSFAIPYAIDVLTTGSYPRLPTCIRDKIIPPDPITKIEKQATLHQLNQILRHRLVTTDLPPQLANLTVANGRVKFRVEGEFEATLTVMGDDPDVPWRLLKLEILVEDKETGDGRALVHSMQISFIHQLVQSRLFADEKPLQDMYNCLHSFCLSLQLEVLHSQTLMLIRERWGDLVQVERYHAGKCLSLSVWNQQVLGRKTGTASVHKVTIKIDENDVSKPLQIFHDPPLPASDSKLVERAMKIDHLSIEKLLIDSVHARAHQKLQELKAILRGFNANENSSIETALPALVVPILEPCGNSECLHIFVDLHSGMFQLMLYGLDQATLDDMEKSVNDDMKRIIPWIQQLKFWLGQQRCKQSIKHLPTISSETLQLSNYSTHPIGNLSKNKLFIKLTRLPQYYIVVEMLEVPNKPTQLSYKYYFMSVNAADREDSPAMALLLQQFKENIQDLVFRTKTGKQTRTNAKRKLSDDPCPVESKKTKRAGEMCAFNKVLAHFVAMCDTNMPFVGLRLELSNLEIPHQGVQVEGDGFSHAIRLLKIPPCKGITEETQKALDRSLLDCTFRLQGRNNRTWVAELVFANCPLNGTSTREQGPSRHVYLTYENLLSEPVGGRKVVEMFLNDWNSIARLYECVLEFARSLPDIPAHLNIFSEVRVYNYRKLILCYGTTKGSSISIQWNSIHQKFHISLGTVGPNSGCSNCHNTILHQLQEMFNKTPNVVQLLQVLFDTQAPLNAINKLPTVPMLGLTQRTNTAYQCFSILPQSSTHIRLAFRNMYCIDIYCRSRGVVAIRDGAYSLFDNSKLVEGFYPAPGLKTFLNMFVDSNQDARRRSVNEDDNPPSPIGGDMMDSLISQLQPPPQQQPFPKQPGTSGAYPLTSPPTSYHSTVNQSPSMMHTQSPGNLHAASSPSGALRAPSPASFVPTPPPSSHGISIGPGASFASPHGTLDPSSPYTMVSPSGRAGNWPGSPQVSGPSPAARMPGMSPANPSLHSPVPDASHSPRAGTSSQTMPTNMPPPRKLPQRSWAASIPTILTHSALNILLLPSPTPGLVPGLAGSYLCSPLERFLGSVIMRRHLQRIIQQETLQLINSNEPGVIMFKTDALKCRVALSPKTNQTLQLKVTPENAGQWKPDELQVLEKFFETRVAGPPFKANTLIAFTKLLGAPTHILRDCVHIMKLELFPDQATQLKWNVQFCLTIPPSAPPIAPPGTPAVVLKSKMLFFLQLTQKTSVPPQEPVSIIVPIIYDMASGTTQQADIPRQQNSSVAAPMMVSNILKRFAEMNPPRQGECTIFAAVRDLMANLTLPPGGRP
# UniProt O00459, whole entry: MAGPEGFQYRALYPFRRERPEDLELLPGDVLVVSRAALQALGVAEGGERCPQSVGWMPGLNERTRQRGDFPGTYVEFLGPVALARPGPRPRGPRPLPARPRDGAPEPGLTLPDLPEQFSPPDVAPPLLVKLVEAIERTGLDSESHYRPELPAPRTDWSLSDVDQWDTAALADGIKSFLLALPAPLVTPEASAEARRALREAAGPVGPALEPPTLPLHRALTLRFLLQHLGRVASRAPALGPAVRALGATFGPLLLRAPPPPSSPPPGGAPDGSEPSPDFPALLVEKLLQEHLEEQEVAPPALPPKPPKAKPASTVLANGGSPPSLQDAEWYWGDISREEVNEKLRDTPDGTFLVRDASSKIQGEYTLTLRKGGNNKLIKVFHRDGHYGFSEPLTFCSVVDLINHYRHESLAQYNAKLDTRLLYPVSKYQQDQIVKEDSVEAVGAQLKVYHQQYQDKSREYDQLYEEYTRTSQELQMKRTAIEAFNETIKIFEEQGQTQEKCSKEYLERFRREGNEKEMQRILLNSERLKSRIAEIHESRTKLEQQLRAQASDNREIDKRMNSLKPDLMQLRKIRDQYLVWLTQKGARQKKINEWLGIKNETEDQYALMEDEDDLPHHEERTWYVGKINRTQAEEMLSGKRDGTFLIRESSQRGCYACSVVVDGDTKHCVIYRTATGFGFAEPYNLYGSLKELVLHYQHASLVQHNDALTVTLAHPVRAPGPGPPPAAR
# UniProt O43776: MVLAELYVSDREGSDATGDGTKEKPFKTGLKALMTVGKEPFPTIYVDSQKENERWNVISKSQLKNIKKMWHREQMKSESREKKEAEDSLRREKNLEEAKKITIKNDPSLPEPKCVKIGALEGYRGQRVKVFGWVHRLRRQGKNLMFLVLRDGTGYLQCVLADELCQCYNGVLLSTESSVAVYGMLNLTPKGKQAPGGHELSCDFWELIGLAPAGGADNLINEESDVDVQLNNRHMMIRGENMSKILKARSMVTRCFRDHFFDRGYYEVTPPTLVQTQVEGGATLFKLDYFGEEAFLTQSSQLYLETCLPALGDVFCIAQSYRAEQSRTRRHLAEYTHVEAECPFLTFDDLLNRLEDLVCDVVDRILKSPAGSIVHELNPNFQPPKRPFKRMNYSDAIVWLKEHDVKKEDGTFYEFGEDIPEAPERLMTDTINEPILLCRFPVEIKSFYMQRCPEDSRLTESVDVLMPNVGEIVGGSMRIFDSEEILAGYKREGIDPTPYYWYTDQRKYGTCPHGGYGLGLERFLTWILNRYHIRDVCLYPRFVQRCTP
# UniProt Q96CP6, whole entry: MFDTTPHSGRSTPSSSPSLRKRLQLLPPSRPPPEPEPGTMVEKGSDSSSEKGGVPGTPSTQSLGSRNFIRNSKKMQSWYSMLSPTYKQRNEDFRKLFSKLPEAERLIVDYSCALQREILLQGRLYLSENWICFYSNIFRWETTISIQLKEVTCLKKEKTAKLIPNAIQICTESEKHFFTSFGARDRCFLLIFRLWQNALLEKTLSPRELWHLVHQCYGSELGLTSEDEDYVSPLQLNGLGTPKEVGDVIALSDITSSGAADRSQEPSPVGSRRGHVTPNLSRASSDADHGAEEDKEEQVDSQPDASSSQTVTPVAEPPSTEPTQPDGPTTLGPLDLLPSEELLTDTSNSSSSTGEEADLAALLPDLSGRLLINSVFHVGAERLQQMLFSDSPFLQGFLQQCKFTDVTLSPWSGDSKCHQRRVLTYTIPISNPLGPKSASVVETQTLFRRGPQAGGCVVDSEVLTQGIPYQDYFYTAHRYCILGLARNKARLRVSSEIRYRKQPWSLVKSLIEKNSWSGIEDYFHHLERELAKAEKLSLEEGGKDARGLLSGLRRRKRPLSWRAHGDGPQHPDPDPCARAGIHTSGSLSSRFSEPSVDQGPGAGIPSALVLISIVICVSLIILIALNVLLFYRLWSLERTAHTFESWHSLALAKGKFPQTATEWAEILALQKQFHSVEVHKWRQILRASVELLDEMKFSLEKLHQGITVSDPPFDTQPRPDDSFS
# Compound: Nc1nc2c(ncn2[C@@H]2O[C@H](COP(=O)(O)OP(=O)(O)OP(=O)(O)O)[C@@H](O)[C@H]2O)c(=O)[nH]1 [guanosine triphosphate]
# Experiment: NP40-soluble protein abundance relative to vehicle (solubility fold change) (ratio); higher = more soluble protein in presence of GTP
# Experimental: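 Solubility proteome profiling in Jurkat crude lysate. Lysate was treated with Mg-GTP (0.1-10 mM) for 10 min at room temperature and 3 min at 37 °C, then solubilised with 0.8% NP40 and benzonase, followed by ultracentrifugation. Proteins were quantified by TMT10 LC-MS/MS; the value is the NP40-soluble abundance relative to the NP40-processed vehicle, from 3 independent experiments.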
Target,NP40-soluble protein abundance (concentration: 0.1mM),NP40-soluble protein abundance (concentration: 0.5mM),NP40-soluble protein abundance (concentration: 1mM),NP40-soluble protein abundance (concentration: 2mM),NP40-soluble protein abundance (concentration: 4mM),NP40-soluble protein abundance (concentration: 6mM),NP40-soluble protein abundance (concentration: 8mM),NP40-soluble protein abundance (concentration: 10mM)
MAFK (UniProt O60675),0.715 ± 0.09,0.828 ± 0.1,0.792 ± 0.086,0.885 ± 0.11,0.781 ± 0.058,0.882 ± 0.093,0.806 ± 0.028,1.05 ± 0.067
MED14 (UniProt O60244),1.03 ± 0.019,1.12 ± 0.025,1.15 ± 0.22,1.18 ± 0.23,1.2 ± 0.28,1.16 ± 0.17,1.2 ± 0.27,1.19 ± 0.18
PIK3R2 (UniProt O00459),1.11 ± 0.17,1.11 ± 0.22,1.11 ± 0.21,0.982 ± 0.16,0.937 ± 0.19,0.997 ± 0.2,0.989 ± 0.15,0.967 ± 0.08
UniProt O43776 and related entries,1.04 ± 0.018,1.06 ± 0.036,0.966 ± 0.015,0.955 ± 0.033,0.946 ± 0.037,0.929 ± 0.025,0.928 ± 0.028,0.905 ± 0.067
M0QZ12 and related entries (UniProt Q96CP6),0.974 ± 0.057,1.02 ± 0.019,0.979 ± 0.016,1.03 ± 0.023,1.05 ± 0.011,1.02 ± 0.076,0.991 ± 0.035,1.01 ± 0.042
